One substance from paper PMC5074804 can be followed below.

Chains of the proteins cited; added tags and fusions are not shown.
UniProt P10085: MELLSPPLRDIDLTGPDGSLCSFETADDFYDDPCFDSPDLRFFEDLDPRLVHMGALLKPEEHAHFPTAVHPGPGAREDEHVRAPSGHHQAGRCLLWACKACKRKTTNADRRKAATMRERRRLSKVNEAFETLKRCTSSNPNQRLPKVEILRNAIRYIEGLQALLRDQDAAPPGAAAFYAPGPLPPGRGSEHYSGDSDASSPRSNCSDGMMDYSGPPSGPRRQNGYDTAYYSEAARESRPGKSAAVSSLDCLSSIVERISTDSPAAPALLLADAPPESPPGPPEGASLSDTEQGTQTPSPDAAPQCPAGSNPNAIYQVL
UniProt Q9Z0Z7: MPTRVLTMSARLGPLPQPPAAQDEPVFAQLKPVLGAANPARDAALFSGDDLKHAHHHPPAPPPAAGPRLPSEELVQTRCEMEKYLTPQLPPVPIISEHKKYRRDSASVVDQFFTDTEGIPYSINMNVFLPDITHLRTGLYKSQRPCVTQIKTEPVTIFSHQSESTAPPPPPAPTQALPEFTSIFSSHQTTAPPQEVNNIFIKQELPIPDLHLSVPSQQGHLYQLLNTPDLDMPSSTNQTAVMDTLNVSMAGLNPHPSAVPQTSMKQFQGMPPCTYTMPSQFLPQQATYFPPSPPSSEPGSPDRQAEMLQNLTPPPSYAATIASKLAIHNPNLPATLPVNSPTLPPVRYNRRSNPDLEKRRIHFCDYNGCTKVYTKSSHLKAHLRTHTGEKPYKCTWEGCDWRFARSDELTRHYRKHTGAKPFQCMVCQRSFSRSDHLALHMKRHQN

This assay deals with MyoD (mouse (endogenous in C2C12)) (UniProt P10085). The assay is described as follows: co-IP; whole cell extract (600 µg protein) of C2C12 cells differentiated for 5 days; immunoprecipitated with 2 µg anti-MyoD or anti-Mef2 antibody overnight at 4°C, protein G Dynabeads; washed 6 times with 10 mM Tris-HCl, 100 mM NaCl, 1 mM DTT, 0.5% NP40, 0.5% TritonX-100; compared to 1% input and control without primary antibody.

No constants are given. Whether binding was seen depends on the method and setting. Binding seen in cells or lysates may run through a third protein. Some entries that bind do so weakly or less than the wild type.

In the case of “Krüppel-like factor 5 (from UniProt Q9Z0Z7 1-446)”, the binding result was “binds”.
